Data on eleven targets can be found in the supplement of paper PMC12819154, “High-throughput peptide-centric local stability assay extends protein–ligand identification to membrane proteins, tissues and bacteria” (Nature Structural & Molecular Biology, 2025).

Sequences of proteins named here, by UniProt entry; tags and fusion partners are left off. A change or cut given only in a name is not applied to a line headed by its entry.
UniProt Q9ESK4: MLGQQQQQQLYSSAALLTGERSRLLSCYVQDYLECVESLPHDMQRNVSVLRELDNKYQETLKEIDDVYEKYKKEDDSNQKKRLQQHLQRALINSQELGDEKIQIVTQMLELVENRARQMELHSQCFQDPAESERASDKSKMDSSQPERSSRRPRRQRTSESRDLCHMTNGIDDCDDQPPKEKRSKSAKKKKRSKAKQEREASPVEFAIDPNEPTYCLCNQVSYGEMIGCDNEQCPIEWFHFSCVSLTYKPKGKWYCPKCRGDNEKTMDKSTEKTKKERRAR
UniProt Q9JJV4: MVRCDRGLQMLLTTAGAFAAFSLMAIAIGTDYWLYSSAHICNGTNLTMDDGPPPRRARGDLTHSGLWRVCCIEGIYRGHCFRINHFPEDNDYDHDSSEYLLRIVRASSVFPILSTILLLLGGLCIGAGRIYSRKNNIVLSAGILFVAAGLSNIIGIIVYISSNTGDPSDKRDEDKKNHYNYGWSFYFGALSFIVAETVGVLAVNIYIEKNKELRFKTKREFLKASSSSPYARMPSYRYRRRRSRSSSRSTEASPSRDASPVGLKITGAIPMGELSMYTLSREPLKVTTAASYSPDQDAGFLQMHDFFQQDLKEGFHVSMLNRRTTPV
UniProt Q9JI78: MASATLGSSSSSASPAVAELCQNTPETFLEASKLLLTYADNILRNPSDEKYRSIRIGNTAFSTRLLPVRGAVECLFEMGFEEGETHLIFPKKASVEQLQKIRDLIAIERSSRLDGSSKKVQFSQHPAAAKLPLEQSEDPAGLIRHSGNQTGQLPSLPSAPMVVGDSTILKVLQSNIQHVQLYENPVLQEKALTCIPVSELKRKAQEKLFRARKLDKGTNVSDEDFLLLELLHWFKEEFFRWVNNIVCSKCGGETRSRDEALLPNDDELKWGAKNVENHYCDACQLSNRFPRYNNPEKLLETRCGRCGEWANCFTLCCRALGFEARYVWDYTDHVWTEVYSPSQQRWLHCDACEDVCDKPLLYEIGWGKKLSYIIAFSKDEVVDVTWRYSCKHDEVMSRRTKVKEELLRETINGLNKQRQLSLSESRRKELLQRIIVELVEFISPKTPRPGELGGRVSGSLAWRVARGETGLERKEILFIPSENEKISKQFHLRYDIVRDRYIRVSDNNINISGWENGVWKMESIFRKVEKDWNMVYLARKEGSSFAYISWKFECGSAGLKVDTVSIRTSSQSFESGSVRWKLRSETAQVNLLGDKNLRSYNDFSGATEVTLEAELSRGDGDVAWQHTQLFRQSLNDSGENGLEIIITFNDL
UniProt Q9EST5: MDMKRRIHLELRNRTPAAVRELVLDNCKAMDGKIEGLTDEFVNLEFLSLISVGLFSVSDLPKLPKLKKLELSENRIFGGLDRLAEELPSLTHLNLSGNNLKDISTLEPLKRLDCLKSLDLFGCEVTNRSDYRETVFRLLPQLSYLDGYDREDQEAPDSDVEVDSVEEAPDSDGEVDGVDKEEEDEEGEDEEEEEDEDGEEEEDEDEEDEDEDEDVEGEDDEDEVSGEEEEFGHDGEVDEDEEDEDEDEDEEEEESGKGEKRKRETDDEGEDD
UniProt Q9JKP8: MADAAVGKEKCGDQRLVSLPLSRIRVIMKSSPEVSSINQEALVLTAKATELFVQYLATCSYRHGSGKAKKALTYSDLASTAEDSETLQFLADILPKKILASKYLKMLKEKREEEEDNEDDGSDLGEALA
UniProt Q9JLZ8: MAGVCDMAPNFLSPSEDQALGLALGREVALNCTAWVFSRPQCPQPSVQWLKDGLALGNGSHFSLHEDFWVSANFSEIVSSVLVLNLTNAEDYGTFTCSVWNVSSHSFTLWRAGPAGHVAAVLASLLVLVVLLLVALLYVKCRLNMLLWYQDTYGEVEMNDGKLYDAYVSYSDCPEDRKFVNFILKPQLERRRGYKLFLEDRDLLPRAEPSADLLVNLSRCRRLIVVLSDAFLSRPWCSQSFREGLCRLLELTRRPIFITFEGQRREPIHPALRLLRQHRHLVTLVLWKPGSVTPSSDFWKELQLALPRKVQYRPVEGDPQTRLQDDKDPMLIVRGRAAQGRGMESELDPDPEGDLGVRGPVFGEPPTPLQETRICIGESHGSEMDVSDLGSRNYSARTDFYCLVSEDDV
UniProt Q9JIY0, whole entry: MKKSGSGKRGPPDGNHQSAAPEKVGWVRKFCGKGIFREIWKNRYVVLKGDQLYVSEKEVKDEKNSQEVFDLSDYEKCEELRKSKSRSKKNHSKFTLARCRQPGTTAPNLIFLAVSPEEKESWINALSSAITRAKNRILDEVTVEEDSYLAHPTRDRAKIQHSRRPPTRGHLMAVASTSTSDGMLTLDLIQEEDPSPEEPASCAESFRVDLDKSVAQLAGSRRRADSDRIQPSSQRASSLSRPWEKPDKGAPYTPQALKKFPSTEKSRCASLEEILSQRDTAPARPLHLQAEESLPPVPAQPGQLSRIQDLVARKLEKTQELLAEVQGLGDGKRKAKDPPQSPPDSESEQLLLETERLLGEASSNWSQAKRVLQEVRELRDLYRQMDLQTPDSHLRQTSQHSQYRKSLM
UniProt Q9JLC6: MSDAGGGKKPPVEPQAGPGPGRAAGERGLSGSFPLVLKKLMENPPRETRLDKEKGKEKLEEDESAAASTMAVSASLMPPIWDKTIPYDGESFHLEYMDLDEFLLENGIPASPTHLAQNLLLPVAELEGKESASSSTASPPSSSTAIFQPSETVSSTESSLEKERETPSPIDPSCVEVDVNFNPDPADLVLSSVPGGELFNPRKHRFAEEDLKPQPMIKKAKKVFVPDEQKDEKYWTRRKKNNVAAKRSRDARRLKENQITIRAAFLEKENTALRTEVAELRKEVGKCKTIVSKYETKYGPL
UniProt Q9JHK4: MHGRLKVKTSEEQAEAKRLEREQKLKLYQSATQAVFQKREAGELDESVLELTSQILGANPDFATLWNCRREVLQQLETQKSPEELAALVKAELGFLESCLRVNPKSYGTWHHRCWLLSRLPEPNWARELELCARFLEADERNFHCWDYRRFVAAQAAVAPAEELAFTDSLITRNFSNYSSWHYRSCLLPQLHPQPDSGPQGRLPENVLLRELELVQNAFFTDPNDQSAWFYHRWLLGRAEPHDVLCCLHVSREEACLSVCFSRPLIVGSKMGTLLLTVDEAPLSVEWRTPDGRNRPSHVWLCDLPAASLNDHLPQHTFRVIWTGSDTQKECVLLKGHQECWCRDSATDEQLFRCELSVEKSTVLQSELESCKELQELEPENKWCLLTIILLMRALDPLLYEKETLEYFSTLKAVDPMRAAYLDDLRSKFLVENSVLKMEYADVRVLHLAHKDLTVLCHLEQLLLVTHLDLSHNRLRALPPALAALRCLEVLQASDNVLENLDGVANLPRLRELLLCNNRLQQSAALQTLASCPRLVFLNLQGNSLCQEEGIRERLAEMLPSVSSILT
UniProt Q9JIL5: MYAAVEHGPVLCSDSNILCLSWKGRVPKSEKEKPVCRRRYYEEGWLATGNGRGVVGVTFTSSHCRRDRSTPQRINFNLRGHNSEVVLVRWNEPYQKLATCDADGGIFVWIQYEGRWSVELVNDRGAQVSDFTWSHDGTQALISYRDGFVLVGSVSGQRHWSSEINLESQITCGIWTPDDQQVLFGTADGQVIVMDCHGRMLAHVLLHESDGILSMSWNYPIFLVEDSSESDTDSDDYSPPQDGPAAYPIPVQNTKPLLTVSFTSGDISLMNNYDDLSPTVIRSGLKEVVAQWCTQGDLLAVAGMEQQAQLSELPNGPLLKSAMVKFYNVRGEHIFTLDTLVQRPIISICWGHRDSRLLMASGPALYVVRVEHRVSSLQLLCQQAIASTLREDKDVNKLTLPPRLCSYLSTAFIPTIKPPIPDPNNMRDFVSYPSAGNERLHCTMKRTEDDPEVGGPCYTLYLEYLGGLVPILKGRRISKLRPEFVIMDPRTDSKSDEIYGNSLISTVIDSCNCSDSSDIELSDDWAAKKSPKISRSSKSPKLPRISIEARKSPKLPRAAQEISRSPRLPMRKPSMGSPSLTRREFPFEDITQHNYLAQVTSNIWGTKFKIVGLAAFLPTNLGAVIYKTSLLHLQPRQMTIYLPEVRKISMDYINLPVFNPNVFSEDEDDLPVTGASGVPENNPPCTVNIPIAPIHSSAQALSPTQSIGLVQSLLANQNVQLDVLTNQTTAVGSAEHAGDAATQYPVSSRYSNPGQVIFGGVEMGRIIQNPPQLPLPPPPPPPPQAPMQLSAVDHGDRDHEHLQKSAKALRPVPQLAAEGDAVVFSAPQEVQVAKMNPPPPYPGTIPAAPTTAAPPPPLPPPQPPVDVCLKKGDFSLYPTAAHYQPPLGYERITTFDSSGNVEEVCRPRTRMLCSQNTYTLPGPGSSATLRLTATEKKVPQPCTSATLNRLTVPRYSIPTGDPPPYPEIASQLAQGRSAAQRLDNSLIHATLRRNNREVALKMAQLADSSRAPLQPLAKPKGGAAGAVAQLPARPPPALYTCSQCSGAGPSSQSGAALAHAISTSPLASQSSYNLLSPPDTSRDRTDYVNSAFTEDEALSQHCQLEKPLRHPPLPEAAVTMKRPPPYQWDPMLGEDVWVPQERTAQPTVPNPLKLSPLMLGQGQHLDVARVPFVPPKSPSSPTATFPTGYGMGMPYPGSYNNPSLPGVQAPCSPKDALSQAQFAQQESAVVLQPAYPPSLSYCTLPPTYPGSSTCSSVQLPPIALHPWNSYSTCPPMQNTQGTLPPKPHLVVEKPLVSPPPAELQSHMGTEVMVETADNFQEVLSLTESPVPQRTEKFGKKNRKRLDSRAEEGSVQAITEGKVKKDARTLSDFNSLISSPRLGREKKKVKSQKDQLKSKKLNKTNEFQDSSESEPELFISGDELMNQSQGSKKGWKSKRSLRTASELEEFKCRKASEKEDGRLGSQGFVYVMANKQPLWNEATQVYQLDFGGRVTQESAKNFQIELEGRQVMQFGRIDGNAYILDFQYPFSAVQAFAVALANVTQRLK
UniProt Q9JK83: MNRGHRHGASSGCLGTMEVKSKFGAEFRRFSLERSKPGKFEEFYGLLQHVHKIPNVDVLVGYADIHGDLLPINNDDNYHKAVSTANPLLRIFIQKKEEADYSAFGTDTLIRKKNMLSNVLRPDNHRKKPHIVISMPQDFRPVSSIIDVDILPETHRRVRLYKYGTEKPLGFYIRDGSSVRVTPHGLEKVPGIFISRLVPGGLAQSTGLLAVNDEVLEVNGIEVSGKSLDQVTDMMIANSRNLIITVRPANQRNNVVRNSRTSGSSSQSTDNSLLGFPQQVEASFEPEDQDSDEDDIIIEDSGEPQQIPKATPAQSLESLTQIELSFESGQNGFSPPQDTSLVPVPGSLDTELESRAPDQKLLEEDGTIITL

Some of the results follow. Most values lie at the level of the controls, where differences are scatter.

Compound in this test: CN[C@@H]1C[C@H]2O[C@@](C)([C@@H]1OC)n1c3ccccc3c3c4c(c5c6ccccc6n2c5c31)C(=O)NC4 [staurosporine]
Description: log2 fold change of tryptic peptide abundance, ligand vs vehicle (limited proteolysis) (log2 ratio); higher = more trypsin-susceptible (destabilized). The note with it: ligand concentration: 20 uM; sample: mouse liver crude lysate; replicate design: treated separately.
For the target “UniProt Q9ESK4 (peptide sequence: DLCHMTNGIDDCDDQPPKEKR, peptide start residue: 163)”, the log2 fold change came out at 0.49.

As for “UniProt Q9JJV4 (peptide sequence: TKREFLK, peptide start residue: 217)”, the log2 fold change was -0.131.

Take “UniProt Q9JI78 (peptide sequence: YSCKHDEVMSR, peptide start residue: 388)”: the log2 fold change came out at 0.436.

Turning to “UniProt Q9EST5 (peptide sequence: DISTLEPLKR, peptide start residue: 102)”, the log2 fold change was 0.114.

Take “UniProt Q9JKP8 (peptide sequence: LVSLPLSR, peptide start residue: 16)”: the log2 fold change was 0.145.

As for “UniProt Q9JLZ8 (peptide sequence: KVQYRPVEGDPQTR, peptide start residue: 309)”, the log2 fold change turned out to be 0.279.

Take “UniProt Q9JIY0 (peptide sequence: ASSLSRPWEKPDK, peptide start residue: 236)”: the log2 fold change was -0.0355.

As for “UniProt Q9JLC6 (peptide sequence: FAEEDLKPQPMIKK, peptide start residue: 206)”, the log2 fold change amounted to 0.388.

As to “UniProt Q9JHK4 (peptide sequence: FLVENSVLK, peptide start residue: 429)”, the log2 fold change was -0.36.

Regarding “UniProt Q9JIL5 (peptide sequence: MAQLADSSR, peptide start residue: 1002)”, the log2 fold change is -0.228.

Consider “UniProt Q9JK83 (peptide sequence: VPGIFISR, peptide start residue: 189)”, for which the log2 fold change amounted to 0.25.
